From US20220202864A1
No constants are given. Whether binding was seen depends on the method and setting. Some binding calls cover weakened binding; strength is not graded here.

By UniProt entry, the sequences of proteins in these tests, tags left out. Residues count along the entry.
UniProt Q02223, residues 1-54: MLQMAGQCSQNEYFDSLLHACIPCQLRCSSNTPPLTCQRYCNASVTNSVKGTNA

Target: BCMA antigen (UniProt Q02223)
Assay: flow cytometry, CAR-T cells stained with BCMA antigen

binding: binds
B1: CAR-J1 (scFv, V domains shown)
VH: QVQLQQSGGGLVQPGGSLKLSCAASGIDFSRYWMSWVRRAPGKGLEWIGEINPDSSTINYAPSLKDKFIISRDNAKNTLYLQMSKVRSEDTALYYCASLYYDYGDAMDYWGQGTSVTVSS
VL: DIVMTQSQRFMTTSVGDRVSVTCKASQSVDSNVAWYQQKPRQSPKALIFSASLRFSGVPARFTGSGSGTDFTLTISNLQSEDLAEYFCQQYNNYPLTFGAGTKLELK
